We go through one substance from US20200399339 (published 2020).

The nature of data set [1]: general procedure: Fmoc solid-phase peptide synthesis; Wang resin; DIC/OxymaPure. The note with it: whole synthesis, scale of the general procedure 3 grams resin, loading 0.7 mmol/g.
A short description of data set [2]: general procedure: Fmoc solid-phase peptide synthesis; Wang; DIC/OxymaPure. The note with it: whole synthesis; for crude HPLC purity / crude yield: scale of the general procedure 3 grams resin, loading 0.7 mmol/g; for crude yield: molar yield.

In the case of glucagon, the difficulty met result in data set [1] is “presence of the truncated sequences at the residues Gly4, Gln3 and Ser2 in the crude glucagon”. For the same substance, in data set [2] (run 1), the “crude HPLC purity” value came out at 37%, the crude yield was 15% and the crude mass is reported as 2.4 g. In data set [2] (run 2), the “crude HPLC purity” value was determined as 8%, the crude yield amounted to 3% and the crude mass worked out at 1.7 g. In data set [2] (run 3), the “crude HPLC purity” value is recorded as 70%, the crude yield came out at 55% and the crude mass was determined as 2.6 g.
